The results in this text go back to the supplement of paper PMC10849652.

Chains of the proteins cited; added tags and fusions are not shown. Lines headed by an entry give the natural chain unless they say otherwise; changes in a name come on top.
UniProt O95249: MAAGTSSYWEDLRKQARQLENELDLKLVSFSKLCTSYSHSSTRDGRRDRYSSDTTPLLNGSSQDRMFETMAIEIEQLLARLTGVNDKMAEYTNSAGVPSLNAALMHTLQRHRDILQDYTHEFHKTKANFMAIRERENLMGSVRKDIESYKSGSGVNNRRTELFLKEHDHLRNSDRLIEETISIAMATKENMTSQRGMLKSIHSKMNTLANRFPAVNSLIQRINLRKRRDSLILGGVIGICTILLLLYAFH
UniProt O14908: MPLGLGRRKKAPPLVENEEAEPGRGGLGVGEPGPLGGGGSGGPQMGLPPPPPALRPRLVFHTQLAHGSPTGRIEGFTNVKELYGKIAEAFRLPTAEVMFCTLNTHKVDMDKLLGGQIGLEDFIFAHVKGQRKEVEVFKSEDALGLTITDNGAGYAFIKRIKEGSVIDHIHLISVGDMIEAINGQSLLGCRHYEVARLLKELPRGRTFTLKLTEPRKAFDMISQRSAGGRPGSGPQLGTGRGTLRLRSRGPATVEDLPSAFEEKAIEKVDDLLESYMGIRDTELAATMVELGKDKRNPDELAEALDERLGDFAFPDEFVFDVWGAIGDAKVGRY
UniProt Q9Y692: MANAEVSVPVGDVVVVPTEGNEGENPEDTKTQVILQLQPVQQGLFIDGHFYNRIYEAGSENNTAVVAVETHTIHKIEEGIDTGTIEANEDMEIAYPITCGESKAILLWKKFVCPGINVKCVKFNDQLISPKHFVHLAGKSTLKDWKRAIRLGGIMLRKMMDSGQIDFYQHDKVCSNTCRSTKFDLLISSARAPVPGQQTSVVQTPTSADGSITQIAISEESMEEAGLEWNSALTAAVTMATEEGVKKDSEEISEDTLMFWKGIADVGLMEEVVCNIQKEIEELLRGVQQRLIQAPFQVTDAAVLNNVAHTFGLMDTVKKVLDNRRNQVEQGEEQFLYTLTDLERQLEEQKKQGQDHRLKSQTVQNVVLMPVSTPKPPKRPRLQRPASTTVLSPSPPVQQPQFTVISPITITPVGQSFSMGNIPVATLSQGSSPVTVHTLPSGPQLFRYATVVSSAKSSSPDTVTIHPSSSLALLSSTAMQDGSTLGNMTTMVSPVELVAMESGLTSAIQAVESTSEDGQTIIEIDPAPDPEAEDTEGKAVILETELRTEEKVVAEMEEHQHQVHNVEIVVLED
UniProt Q8IXQ4: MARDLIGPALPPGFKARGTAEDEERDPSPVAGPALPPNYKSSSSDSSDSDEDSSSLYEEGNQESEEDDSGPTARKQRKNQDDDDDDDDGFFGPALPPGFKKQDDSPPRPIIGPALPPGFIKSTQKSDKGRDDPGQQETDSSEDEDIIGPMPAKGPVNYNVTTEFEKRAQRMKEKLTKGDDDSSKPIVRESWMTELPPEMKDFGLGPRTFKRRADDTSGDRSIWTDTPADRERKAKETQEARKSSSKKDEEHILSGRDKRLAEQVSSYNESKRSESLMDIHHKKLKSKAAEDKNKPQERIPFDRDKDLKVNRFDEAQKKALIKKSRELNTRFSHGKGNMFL
UniProt O76003: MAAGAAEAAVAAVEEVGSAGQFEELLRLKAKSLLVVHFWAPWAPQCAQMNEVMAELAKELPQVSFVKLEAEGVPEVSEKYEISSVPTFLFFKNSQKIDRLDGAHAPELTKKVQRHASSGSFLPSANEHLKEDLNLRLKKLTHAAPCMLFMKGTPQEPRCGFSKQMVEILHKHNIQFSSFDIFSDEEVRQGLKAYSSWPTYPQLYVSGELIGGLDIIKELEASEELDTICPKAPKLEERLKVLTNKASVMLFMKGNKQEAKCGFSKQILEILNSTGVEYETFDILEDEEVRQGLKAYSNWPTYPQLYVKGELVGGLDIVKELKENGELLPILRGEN
UniProt Q13439: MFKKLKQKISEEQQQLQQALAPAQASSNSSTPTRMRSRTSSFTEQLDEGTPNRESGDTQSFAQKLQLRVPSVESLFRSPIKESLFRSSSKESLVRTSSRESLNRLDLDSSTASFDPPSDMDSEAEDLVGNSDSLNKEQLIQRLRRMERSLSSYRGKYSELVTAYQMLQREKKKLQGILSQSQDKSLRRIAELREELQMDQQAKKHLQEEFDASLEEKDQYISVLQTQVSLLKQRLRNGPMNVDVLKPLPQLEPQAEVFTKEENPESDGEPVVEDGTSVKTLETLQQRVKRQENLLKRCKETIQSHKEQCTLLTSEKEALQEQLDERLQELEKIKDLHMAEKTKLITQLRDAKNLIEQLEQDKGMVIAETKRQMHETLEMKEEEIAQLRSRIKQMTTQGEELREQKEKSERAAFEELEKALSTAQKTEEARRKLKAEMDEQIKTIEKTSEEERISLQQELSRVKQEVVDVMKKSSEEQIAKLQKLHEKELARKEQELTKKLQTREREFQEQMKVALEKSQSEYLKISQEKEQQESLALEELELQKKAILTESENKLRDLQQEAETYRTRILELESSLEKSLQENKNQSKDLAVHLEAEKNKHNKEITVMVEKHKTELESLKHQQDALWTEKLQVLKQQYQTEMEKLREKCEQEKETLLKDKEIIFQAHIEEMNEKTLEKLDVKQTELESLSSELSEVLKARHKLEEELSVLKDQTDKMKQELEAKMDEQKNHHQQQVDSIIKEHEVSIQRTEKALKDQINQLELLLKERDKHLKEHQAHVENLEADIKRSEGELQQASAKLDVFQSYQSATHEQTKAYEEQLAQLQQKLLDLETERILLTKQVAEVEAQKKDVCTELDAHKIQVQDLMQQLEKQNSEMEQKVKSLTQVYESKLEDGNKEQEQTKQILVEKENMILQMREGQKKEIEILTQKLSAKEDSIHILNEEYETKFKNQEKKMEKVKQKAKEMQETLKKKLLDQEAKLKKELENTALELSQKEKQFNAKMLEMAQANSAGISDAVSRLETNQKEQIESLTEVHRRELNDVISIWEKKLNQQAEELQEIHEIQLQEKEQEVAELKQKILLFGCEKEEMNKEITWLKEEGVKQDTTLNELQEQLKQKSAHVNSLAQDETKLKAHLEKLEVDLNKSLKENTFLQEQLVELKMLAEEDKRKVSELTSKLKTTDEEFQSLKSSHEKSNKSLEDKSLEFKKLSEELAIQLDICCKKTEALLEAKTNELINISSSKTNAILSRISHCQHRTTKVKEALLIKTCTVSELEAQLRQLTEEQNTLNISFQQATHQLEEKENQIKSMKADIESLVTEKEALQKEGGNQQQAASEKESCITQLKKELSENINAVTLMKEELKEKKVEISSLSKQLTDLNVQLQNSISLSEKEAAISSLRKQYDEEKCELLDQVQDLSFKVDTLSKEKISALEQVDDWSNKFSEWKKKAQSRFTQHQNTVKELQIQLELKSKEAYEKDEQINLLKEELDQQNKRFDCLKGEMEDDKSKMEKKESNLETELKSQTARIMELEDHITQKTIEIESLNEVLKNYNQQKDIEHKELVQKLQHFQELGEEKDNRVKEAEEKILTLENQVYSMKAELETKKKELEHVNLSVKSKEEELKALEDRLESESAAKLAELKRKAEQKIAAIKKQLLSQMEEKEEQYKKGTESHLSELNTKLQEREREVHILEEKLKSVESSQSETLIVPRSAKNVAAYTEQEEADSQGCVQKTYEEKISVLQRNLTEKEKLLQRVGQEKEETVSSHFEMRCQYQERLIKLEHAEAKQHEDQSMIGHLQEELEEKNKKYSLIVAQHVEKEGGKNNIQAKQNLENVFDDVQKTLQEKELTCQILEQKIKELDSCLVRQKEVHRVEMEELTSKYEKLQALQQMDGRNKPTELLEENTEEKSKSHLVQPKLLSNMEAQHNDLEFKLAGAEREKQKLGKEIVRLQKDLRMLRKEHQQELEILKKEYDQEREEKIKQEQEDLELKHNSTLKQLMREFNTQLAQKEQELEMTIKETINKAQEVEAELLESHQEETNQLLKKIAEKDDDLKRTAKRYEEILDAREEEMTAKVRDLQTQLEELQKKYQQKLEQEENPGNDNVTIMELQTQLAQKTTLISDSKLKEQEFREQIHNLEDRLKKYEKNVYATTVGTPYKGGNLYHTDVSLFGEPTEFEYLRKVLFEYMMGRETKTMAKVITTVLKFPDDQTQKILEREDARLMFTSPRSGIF
UniProt Q9BXV9: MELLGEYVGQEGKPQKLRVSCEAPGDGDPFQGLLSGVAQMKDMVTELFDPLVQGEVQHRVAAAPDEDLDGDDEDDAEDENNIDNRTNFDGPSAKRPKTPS
UniProt Q96EK6: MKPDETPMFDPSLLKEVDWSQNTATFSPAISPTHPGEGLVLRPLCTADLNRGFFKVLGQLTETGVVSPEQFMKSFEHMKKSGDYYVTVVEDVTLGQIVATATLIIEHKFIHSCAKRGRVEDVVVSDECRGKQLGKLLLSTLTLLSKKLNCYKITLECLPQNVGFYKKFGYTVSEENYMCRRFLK
UniProt Q9BRT9, whole entry, looked up: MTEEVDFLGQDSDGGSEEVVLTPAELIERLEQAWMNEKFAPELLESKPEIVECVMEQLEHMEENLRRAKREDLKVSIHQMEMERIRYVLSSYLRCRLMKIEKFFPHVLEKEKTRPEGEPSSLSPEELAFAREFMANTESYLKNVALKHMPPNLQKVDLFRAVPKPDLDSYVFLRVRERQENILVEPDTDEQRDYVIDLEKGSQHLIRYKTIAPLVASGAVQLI
UniProt Q9NPR9: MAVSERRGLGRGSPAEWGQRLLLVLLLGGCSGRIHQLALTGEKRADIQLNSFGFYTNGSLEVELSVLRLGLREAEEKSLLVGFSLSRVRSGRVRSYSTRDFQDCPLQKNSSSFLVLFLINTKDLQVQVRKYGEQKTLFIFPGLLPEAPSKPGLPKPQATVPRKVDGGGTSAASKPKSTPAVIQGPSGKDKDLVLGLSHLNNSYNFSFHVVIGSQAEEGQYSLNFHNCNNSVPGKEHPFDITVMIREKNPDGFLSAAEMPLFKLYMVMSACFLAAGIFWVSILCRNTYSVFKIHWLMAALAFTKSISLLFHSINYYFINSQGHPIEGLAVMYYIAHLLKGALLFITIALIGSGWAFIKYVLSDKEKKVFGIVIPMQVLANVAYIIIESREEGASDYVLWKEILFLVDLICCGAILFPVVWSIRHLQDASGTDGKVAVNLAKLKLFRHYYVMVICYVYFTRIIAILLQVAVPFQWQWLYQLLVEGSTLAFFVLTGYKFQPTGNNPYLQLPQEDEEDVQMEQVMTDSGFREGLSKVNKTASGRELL
UniProt Q9UHW5, whole entry, looked up: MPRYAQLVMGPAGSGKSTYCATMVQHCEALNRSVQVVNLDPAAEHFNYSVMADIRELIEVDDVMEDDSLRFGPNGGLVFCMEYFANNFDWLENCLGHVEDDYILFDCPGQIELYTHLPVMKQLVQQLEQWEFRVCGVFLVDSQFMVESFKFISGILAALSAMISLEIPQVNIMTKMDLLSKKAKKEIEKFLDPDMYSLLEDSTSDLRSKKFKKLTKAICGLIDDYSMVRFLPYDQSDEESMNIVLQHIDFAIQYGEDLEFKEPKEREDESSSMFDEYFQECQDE
UniProt P15586: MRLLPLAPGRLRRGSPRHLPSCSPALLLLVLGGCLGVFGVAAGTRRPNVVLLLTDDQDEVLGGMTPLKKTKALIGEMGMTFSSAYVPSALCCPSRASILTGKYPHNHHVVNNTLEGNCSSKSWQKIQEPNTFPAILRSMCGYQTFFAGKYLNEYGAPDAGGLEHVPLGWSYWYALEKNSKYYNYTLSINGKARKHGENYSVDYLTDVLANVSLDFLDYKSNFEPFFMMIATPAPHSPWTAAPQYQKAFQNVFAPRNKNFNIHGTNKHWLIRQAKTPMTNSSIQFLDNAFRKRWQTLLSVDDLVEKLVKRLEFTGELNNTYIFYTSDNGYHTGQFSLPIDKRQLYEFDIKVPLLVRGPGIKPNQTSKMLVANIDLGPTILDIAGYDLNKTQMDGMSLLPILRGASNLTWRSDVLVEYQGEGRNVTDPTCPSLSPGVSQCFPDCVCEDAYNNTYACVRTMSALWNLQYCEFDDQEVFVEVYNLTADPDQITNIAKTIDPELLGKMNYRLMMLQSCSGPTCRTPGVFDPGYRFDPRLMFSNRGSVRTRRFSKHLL
UniProt Q9H4A6: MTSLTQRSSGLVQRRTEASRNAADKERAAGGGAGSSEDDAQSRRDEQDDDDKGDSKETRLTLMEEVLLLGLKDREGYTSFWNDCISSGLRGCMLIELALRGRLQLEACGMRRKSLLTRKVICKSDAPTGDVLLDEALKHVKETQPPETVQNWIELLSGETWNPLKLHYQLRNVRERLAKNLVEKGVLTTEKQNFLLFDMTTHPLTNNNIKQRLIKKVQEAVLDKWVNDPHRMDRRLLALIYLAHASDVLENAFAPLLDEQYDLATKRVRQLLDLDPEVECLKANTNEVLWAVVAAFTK
UniProt Q9H4A5: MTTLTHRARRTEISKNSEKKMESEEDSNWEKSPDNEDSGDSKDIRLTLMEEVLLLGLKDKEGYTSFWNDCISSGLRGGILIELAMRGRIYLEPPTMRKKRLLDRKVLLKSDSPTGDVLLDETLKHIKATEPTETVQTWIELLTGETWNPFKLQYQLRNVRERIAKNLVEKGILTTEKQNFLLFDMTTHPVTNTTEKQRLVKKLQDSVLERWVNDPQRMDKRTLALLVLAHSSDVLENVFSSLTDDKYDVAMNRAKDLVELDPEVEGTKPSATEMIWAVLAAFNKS

The other results are listed elsewhere or left out.

Compound in one assay: Cc1sc2c(c1C)C(c1ccc(Cl)cc1)=N[C@@H](CC(=O)OC(C)(C)C)c1nnc(C)n1-2
As to the kind of experiment: log2 fold change, soluble protein after heating vs DMSO (PISA); higher = thermal stabilisation; K562 lysate, 10 uM; active = over 0.2 and 3.5 SD of the protein, either way, in both replicates (recomputed). In a few lines:
(§1)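 Quantification was by TMTpro 16plex LC-MS/MS with equalised channel sums, applied to the supernatant after 21,000xg for 90 min. Samples were crude K562 extract at 1 mg/mL protein in PBS pH 7.4 with 1 mM MgCl2, treated with 10 μM compound for 30 min, heated for 3 min across 48°C-58°C, pooled and brought to 0.5% NP-40 at 4°C. Values are log-two fold changes in thermal stability relative to solvent controls, from duplicates.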
On to GNAQ (UniProt P50148), for which the log2 fold change is inactive: 0.021. Same read-out and setting: as for GOSR1 (UniProt O95249), the figure is inactive: -0.022; as for GGCT (UniProt O75223), inactive: 0.017; as for GLTP (UniProt Q9NZD2), inactive: 0.061. For the target GIPC1 (UniProt O14908), the log2 fold change is inactive: 0.027. On the same count and under the same terms, as for GHITM (UniProt Q9H3K2), the figure is inactive: -0.001; as for GPATCH11 (UniProt Q8N954), inactive: -0.058; as for GGT7 (UniProt Q9UJ14), inactive: -0.015. Same read-out and setting: as for GLB1L2 (UniProt Q8IW92), the figure is inactive: -0.017; as for GIT2 (UniProt Q14161), inactive: -0.042; as for GPI (UniProt P06744), inactive: 0.032. The same measure, in the same setting: as for GNA11 (UniProt P29992), the figure is inactive: 0.013; as for GNPDA1 (UniProt P46926), inactive: 0.006.

GMEB1 (UniProt Q9Y692): the log2 fold change was inactive: 0.001. On the same count and under the same terms, as for GPALPP1 (UniProt Q8IXQ4), the figure is inactive: -0.021.

For the target GLRX3 (UniProt O76003), the log2 fold change was inactive: 0. On the same count and under the same terms, as for GOLGA4 isoform 5 (UniProt Q13439), the figure is inactive: -0.002; as for GON7 (UniProt Q9BXV9), inactive: -0.015; as for GP1BB isoform 2 (UniProt P13224), inactive: -0.052. Regarding GNPAT (UniProt O15228), the log2 fold change is inactive: -0.009. The same measure, in the same setting: as for GNPNAT1 (UniProt Q96EK6), the figure is inactive: -0.029. GNA12 (UniProt Q03113): the log2 fold change is inactive: -0.061. The same measure, in the same setting: as for GNAI3 (UniProt P08754), the figure is inactive: -0.036; as for GON4L (UniProt Q3T8J9), inactive: 0.003. With GOLGA4 (UniProt Q13439), the log2 fold change is inactive: 0. The same measure, in the same setting: as for GINS4 (UniProt Q9BRT9), the figure is inactive: 0.037; as for GPR108 (UniProt Q9NPR9), inactive: -0.066. Same read-out and setting: as for GPN3 isoform 2 (UniProt Q9UHW5), the figure is inactive: -0.041; as for GNS (UniProt P15586), inactive: 0.001; as for GOLPH3 (UniProt Q9H4A6), inactive: -0.089.

Turning to GLG1 isoform 2 (UniProt Q92896), the log2 fold change was inactive: -0.027.

Consider GOLPH3L (UniProt Q9H4A5), for which the log2 fold change is inactive: -0.009. Still for that read-out and setting: as for GNL3L (UniProt Q9NVN8), the figure is inactive: 0.161; as for GGT1 (UniProt P19440), inactive: 0.015. Still for that read-out and setting: as for GNB3 (UniProt P16520), the figure is inactive: -0.082.

Compound in another assay: c1ccc([C@@H]2C[C@H]2NC2CCNCC2)cc1
The description is as above. In outline: as §1
GNAQ (UniProt P50148): the log2 fold change is inactive: 0.006. On the same count and under the same terms, as for GOSR1 (UniProt O95249), the figure is inactive: 0.002. As for GGCT (UniProt O75223), the log2 fold change was inactive: -0.065. The same measure, in the same setting: as for GLTP (UniProt Q9NZD2), the figure is inactive: 0.089; as for GIPC1 (UniProt O14908), inactive: 0.039; as for GHITM (UniProt Q9H3K2), inactive: -0.021. The same measure, in the same setting: as for GPATCH11 (UniProt Q8N954), the figure is inactive: -0.057. Same read-out and setting: as for GGT7 (UniProt Q9UJ14), the figure is inactive: -0.048. As for GLB1L2 (UniProt Q8IW92), the log2 fold change was inactive: -0.051. Still for that read-out and setting: as for GIT2 (UniProt Q14161), the figure is inactive: 0.09; as for GPI (UniProt P06744), inactive: 0.007; as for GNA11 (UniProt P29992), inactive: 0.004.

For GNPDA1 (UniProt P46926), the log2 fold change is inactive: -0.026. GMEB1 (UniProt Q9Y692): the log2 fold change was inactive: -0.049. In the case of GPALPP1 (UniProt Q8IXQ4), the log2 fold change was inactive: -0.027. The same measure, in the same setting: as for GLRX3 (UniProt O76003), the figure is inactive: 0.001; as for GOLGA4 isoform 5 (UniProt Q13439), inactive: -0.087. As for GON7 (UniProt Q9BXV9), the log2 fold change was inactive: 0.029. Still for that read-out and setting: as for GP1BB isoform 2 (UniProt P13224), the figure is inactive: 0.023; as for GNPAT (UniProt O15228), inactive: -0.046.

In the case of GNPNAT1 (UniProt Q96EK6), the log2 fold change was inactive: -0.265. In the case of GNAI3 (UniProt P08754), the log2 fold change is inactive: 0.024.

For the target GON4L (UniProt Q3T8J9), the log2 fold change was active: 0.466. GINS4 (UniProt Q9BRT9): the log2 fold change was inactive: 0.031. Regarding GPR108 (UniProt Q9NPR9), the log2 fold change is inactive: 0.014. Take GPN3 isoform 2 (UniProt Q9UHW5): the log2 fold change was inactive: -0.025. Same read-out and setting: as for GNS (UniProt P15586), the figure is inactive: -0.054; as for GOLPH3 (UniProt Q9H4A6), inactive: 0.008. The same measure, in the same setting: as for GLG1 isoform 2 (UniProt Q92896), the figure is inactive: -0.033.

GOLPH3L (UniProt Q9H4A5): the log2 fold change is inactive: 0.021. Consider GNL3L (UniProt Q9NVN8), for which the log2 fold change was inactive: -0.018. The same measure, in the same setting: as for GGT1 (UniProt P19440), the figure is inactive: -0.081; as for GNB3 (UniProt P16520), inactive: -0.116.
